Measured values from PMC8844804.

Chains of the proteins cited; added tags and fusions are not shown. A line that says so, or that is headed by a name, gives the form on record, which may keep a tag or linker. Residues count along the entry.
UniProt P08637, 17-254: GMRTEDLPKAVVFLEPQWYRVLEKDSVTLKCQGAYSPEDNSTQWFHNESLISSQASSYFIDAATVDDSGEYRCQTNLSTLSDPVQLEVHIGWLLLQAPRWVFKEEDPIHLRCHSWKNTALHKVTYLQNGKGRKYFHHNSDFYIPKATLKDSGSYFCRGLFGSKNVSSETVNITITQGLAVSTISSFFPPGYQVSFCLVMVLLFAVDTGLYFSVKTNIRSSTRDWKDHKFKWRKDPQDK
UniProt Q9NZQ7, 19-290: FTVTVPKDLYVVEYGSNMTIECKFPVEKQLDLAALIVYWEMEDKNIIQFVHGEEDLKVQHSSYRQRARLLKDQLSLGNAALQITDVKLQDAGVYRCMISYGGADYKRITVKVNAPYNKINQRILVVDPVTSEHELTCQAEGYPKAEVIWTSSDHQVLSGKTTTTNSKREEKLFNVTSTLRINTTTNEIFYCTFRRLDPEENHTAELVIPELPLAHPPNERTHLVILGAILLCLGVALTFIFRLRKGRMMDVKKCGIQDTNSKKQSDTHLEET
CD16 on murine NK cells (mouse (nude mouse spleen)), one chain, as listed by the source: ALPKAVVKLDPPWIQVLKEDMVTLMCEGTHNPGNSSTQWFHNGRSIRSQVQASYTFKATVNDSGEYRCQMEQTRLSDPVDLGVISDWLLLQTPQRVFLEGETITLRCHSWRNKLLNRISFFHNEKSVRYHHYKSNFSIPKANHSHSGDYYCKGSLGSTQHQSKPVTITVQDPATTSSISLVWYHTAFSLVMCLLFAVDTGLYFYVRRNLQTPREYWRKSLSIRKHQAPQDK

Experiments:
Assay in all cases: cell binding, confocal fluorescence
[1] = biological target: CD16 on human NK cells (human) (UniProt P08637); conditions: 200 nM aptamer, 5' phosphate, Cells with 200 nM Evagreen-labeled aptamer, 37 C, 30 min, PBS wash, incubation buffer and pH not stated, protein on the cell surface, label: Evagreen (intercalated dye), folded or branched DNA
[2] = biological target: PD-L1 on HeLa cells (human) (UniProt Q9NZQ7); conditions: 200 nM aptamer, 5' phosphate, Cells with 200 nM Evagreen-labeled aptamer, 37 C, 30 min, PBS wash, incubation buffer and pH not stated, protein on the cell surface, label: Evagreen (intercalated dye), folded or branched DNA
[3] = biological target: PD-L1 on SMMC-7721 cells (human) (UniProt Q9NZQ7); conditions: 200 nM aptamer, 5' phosphate, Cells with 200 nM Evagreen-labeled aptamer, 37 C, 30 min, PBS wash, incubation buffer and pH not stated, protein on the cell surface, label: Evagreen (intercalated dye), folded or branched DNA
[4] = system: CD16 on murine NK cells (mouse (nude mouse spleen)); conditions: 200 nM aptamer, weak signal; 5' phosphate; 5' and 3' ends ligated by T4 DNA ligase (closed circle); Cells with 200 nM Evagreen-labeled aptamer, 37 C, 30 min; PBS wash; incubation buffer and pH not stated; protein on the cell surface; label: Evagreen (intercalated dye); folded or branched DNA
[5] = ends ligated by T4 DNA ligase (closed circle)
[6] = reduced by anti-PD-L1 antibody, 5' and 3' ends ligated by T4 DNA ligase (closed circle)

Does “GACCTGCCCACTGCGGGGGTCTATACGTGAGGAAGAAGTGGGCAGGTCCAGACGGGCTTTTTTTTTTTTTTTTTTTTTTTTTTTTTTTTTGCCCGTCTG [CD16-apt]” bind [1, 5]?
Result: binds

Does “GACCTGCCCACTTTTTTTTTTTTTTTTTTTTTTTTTAGTGGGCAGGTCCAGACGGGCCACATCAACTCATTGATAGACAATGCGTCCACTGCCCGTCTG [PD-L1-apt]” bind [2, 5]?
Result: binds

Does “GACCTGCCCACTTTTTTTTTTTTTTTTTTTTTTTTTAGTGGGCAGGTCCAGACGGGCCACATCAACTCATTGATAGACAATGCGTCCACTGCCCGTCTG [PD-L1-apt]” bind [3, 5]?
Result: binds

Which results are given for “GACCTGCCCACTGCGGGGGTCTATACGTGAGGAAGAAGTGGGCAGGTCCAGACGGGCCACATCAACTCATTGATAGACAATGCGTCCACTGCCCGTCTG [CP-bi-apt]”?
binding result ([1]; reduced by anti-CD16 antibody, 5' and 3' ends ligated by T4 DNA ligase (closed circle)): binds; binding result [2, 6]: binds; binding result [4]: binds more weakly; binding result [3, 6]: binds

The exact form of at least one protein or probe is not confirmed. Where cells or extracts were used, other partners may take part. For some of these results: Weaker means in comparison with the reference protein, sequence or condition of that experiment. For some of these results: At least one verdict was read from the data and is not stated in words by the source.
